Test results taken from article PMC4340420.
No constants are given. Whether binding was seen depends on the method and setting. Some results given as binding are weak or reduced against the parent protein; the word gives no strength.

Protein sequences, listed by entry. Tags and fused reporters are not part of them. Lines headed by an entry give the natural chain unless they say otherwise; changes in a name come on top. Chains listed by the source or under a name are the forms on record and can include a tag or linker.
hCDK12 D877N (kinase dead single mutant, His-tagged) (Q9NYV4, form named): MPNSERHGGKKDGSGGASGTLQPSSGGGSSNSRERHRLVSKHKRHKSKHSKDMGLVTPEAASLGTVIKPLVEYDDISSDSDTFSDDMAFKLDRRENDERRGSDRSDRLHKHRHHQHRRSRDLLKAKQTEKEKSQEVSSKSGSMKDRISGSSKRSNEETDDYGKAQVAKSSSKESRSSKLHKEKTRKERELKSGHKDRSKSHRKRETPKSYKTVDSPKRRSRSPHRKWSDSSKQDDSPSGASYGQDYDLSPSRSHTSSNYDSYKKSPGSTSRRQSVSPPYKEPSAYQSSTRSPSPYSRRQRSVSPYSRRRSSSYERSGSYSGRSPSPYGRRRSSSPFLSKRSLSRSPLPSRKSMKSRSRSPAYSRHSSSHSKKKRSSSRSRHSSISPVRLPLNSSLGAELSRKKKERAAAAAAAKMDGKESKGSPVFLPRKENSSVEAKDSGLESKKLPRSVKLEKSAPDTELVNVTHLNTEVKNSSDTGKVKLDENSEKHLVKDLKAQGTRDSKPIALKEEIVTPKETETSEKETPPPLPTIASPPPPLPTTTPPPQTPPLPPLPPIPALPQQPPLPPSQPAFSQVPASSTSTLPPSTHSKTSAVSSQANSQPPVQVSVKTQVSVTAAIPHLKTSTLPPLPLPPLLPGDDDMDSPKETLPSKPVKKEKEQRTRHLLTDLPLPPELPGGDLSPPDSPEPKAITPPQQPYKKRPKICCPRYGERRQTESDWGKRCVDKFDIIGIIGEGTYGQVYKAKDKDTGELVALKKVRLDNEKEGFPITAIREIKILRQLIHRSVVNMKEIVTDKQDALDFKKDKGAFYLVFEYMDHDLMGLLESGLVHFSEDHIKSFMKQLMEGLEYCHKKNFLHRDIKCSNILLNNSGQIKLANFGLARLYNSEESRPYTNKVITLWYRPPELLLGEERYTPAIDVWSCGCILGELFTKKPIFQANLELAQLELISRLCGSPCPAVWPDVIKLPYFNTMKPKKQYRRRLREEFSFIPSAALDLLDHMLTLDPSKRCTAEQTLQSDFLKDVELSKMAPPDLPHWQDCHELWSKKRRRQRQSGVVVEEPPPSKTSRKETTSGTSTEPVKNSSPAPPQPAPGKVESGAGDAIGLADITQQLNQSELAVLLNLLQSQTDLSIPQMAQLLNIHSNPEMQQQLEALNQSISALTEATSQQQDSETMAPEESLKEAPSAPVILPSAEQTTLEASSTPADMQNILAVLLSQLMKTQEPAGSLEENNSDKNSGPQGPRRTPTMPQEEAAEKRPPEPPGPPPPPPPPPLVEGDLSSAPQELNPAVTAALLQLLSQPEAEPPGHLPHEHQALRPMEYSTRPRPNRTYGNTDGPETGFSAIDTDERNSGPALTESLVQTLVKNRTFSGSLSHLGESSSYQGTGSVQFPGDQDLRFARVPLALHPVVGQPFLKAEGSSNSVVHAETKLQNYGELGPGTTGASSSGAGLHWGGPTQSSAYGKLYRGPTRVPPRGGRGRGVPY
hCDK12 D877N/K756A (kinase dead double mutant, His-tagged) (Q9NYV4, form named): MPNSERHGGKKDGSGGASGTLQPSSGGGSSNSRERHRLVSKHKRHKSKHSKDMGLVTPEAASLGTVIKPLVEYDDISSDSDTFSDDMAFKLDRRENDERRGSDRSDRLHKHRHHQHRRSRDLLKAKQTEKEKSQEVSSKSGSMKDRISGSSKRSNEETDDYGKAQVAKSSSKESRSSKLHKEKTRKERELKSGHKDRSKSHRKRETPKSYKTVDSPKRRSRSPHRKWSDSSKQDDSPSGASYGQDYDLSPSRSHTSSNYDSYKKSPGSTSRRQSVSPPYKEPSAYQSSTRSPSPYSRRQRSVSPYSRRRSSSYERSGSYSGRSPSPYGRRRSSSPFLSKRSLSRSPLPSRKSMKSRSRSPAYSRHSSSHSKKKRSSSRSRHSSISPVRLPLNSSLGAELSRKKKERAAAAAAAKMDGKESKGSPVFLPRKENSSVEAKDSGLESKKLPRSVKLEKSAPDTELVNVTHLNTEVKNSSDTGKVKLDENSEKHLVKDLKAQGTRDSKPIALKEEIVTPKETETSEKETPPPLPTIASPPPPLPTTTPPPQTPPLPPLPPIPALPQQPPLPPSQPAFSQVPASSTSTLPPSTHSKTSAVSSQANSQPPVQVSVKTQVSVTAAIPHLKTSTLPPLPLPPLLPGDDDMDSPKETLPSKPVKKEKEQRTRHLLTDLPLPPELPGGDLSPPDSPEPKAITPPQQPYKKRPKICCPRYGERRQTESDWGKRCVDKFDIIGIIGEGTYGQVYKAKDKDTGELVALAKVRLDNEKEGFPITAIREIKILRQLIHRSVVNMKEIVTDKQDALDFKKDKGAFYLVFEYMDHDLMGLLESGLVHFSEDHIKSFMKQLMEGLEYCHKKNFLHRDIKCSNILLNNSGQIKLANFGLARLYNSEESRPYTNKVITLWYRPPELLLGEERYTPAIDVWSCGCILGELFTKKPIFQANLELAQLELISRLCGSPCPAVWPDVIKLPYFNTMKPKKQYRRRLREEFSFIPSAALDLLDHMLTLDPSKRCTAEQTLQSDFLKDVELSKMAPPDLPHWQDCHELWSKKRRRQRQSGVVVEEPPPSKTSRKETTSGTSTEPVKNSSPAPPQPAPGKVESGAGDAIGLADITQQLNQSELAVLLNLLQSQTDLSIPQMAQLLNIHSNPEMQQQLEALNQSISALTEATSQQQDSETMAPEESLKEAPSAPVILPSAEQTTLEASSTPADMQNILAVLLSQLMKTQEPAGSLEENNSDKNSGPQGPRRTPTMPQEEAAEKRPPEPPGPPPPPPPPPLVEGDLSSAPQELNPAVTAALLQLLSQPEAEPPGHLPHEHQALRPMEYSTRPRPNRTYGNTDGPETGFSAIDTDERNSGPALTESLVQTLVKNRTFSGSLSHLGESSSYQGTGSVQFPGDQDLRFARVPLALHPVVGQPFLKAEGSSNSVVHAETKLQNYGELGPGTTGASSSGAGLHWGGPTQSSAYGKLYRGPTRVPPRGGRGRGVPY
hCDK12 F813G (analog-sensitive mutant, His-tagged) (Q9NYV4, form named): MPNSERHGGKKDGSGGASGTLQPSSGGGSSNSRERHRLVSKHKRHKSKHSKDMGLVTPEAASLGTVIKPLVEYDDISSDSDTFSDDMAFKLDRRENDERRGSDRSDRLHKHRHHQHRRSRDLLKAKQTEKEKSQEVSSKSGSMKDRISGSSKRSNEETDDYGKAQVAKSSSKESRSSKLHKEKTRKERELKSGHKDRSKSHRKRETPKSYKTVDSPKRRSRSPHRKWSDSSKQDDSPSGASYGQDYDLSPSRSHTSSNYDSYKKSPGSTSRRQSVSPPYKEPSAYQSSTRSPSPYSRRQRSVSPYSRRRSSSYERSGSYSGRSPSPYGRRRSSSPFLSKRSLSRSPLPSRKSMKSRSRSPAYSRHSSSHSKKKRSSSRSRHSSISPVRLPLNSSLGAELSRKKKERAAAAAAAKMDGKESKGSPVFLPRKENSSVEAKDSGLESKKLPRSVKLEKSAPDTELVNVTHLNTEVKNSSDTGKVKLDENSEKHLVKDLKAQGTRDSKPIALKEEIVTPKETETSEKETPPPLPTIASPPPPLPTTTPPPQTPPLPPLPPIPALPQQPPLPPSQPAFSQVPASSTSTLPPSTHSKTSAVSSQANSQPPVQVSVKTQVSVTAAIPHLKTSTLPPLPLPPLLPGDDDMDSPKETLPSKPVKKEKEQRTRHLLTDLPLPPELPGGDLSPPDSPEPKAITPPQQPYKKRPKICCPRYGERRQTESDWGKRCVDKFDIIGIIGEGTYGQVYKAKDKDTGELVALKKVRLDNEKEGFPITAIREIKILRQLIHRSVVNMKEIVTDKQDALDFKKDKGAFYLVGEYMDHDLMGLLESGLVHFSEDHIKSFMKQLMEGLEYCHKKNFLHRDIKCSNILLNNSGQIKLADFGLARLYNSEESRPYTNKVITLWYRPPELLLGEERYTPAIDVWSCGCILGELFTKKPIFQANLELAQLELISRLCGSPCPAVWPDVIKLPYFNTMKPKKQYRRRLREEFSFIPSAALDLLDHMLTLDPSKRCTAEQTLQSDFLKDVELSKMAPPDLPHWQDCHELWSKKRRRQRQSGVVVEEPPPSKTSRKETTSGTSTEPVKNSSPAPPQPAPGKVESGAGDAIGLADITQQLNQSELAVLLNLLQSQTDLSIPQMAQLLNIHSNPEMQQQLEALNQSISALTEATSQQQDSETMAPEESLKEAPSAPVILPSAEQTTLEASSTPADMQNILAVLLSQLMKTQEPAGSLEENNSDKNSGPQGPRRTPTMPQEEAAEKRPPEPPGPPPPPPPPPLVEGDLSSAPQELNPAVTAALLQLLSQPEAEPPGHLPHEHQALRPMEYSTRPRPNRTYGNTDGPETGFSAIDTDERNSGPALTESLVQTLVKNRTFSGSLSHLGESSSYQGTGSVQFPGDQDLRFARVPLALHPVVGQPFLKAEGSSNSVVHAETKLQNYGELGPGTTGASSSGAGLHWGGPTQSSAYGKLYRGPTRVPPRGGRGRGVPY
UniProt O75909: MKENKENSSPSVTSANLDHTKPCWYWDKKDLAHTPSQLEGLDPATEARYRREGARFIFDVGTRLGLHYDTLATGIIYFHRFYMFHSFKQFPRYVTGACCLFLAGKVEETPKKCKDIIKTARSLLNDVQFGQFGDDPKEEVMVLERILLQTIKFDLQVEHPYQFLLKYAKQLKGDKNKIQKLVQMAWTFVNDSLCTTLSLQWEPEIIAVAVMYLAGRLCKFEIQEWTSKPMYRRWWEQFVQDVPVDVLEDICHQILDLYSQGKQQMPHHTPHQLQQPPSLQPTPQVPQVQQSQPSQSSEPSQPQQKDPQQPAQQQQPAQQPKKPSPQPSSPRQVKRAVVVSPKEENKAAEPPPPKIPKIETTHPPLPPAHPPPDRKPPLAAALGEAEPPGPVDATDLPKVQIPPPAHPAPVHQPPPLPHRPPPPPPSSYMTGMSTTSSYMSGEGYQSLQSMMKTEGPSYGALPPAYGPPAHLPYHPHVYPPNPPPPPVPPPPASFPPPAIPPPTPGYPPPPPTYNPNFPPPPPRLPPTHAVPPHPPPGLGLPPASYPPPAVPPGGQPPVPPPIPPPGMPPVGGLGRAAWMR

How the values were obtained:
Experiment in all cases: SEC; second step of the two-step purification: pooled Ni-Sepharose eluate of the co-expressed complex on Superdex 200 10/30 HR, 25 mM HEPES pH 7.6, 8% glycerol, 300 mM NaCl; fractions on Coomassie gel; purified complexes used in kinase assays; both purified
[1] = biological target: hCDK12 D877N (kinase dead single mutant, His-tagged) (human) (UniProt Q9NYV4)
[2] = biological target: hCDK12 D877N/K756A (kinase dead double mutant, His-tagged) (human) (UniProt Q9NYV4)
[3] = biological target: hCDK12 F813G (analog-sensitive mutant, His-tagged) (human) (UniProt Q9NYV4)

binding [1]: binds
binding [2]: binds
binding [3]: binds
Substance: full-length human CyclinK (580 AA) (from UniProt O75909 1-580)
